Data from article PMC5624289.

Legend:
[1] = target: OsFIGNL1 (OsFidgetin-like 1), yeast two-hybrid bait (rice (Oryza sativa)); assay: two-hybrid; OsFIGNL1 as bait (BD), partners as prey (AD); S. cerevisiae Y2HGold; test plates lacking Leu, Trp, His and Ade, 30°C, 4 days
[2] = target: OsFIGNL1, BiFC fusion (pSPYCE-OsFIGNL1) (rice (Oryza sativa)); assay: split reporter; BiFC: pSPYNE (YN) fusions of the partners with pSPYCE (YC)-OsFIGNL1, 35S promoter, Agrobacterium GV3101, Nicotiana benthamiana leaf cells; signal in the nucleus

Binder	binding [1]	binding [2]
DMC1A, yeast two-hybrid prey (protein, UniProt Q7GBF8 1-344) MAPSKQYSEGGQLQLMDAERIEEEEECFESIDKLISQGINSGDVKKLQDAGIYTCNGLMMHTKKSLTGIKGLSEAKVDKICEAAEKLLSQGFITGSDLLIKRKSVVRITTGSQALDKLLGGGIETLCITEAFGEFRSGKTQLAHTLCVSAQLPIHMHGGNGKVAYIDTEGTFRPERIVPIAERFGMDANAVLDNIIYARAYTYEHQYNLLLGLAAKMAEEPFRLLIVDSVIALFRVDFSGRGELAERQQKLAQMLSRLTKIAEEFNVAVYITNQVIADPGGGMFITDLKKPAGGHVLAHAATIRLMLRKGKGEQRVCKIFDAPNLPEGEAVFQVTSGGIMDAKD	binds	
DMC1B, yeast two-hybrid prey (protein, UniProt Q7GBF7 1-344) MAPSKQYDEGGQLQLMDAERIEEEEECFESIDKLISQGINSGDVKKLQDAGIYTCNGLMMHTKKSLTGIKGLSEAKVDKICEAAEKLLSQGFMTGSDLLIKRKSVVRITTGSQALDELLGGGIETLCITEAFGEFRSGKTQLAHTLCVSTQLPIHMHGGNGKVAYIDTEGTFRPERIVPIAERFGMDANAVLDNIIYARAYTYEHQYNLLLGLAAKMAEEPFRLLIVDSVIALFRVDFSGRGELAERQQKLAQMLSRLTKIAEEFNVAVYITNQVIADPGGGMFITDPKKPAGGHVLAHAATIRLMLRKGKGEQRVCKIFDAPNLPEGEAVFQVTSGGIMDAKD	binds	
DMC1A, BiFC fusion (pSPYNE-DMC1A) (protein, UniProt Q7GBF8 1-344) MAPSKQYSEGGQLQLMDAERIEEEEECFESIDKLISQGINSGDVKKLQDAGIYTCNGLMMHTKKSLTGIKGLSEAKVDKICEAAEKLLSQGFITGSDLLIKRKSVVRITTGSQALDKLLGGGIETLCITEAFGEFRSGKTQLAHTLCVSAQLPIHMHGGNGKVAYIDTEGTFRPERIVPIAERFGMDANAVLDNIIYARAYTYEHQYNLLLGLAAKMAEEPFRLLIVDSVIALFRVDFSGRGELAERQQKLAQMLSRLTKIAEEFNVAVYITNQVIADPGGGMFITDLKKPAGGHVLAHAATIRLMLRKGKGEQRVCKIFDAPNLPEGEAVFQVTSGGIMDAKD		binds
DMC1B, BiFC fusion (pSPYNE-DMC1B) (protein, UniProt Q7GBF7 1-344) MAPSKQYDEGGQLQLMDAERIEEEEECFESIDKLISQGINSGDVKKLQDAGIYTCNGLMMHTKKSLTGIKGLSEAKVDKICEAAEKLLSQGFMTGSDLLIKRKSVVRITTGSQALDELLGGGIETLCITEAFGEFRSGKTQLAHTLCVSTQLPIHMHGGNGKVAYIDTEGTFRPERIVPIAERFGMDANAVLDNIIYARAYTYEHQYNLLLGLAAKMAEEPFRLLIVDSVIALFRVDFSGRGELAERQQKLAQMLSRLTKIAEEFNVAVYITNQVIADPGGGMFITDPKKPAGGHVLAHAATIRLMLRKGKGEQRVCKIFDAPNLPEGEAVFQVTSGGIMDAKD		binds

These are yes or no findings as the source states them, for the method shown. Binding can be weak; no strength is given. For some of these results: In cells and extracts the contact can be indirect. For some of these results: Tags and fused reporters may be left off the sequences shown.
